# Counter-ions that a name gives are not always drawn. The list shows a part of the results. The calls rarely recur for the same compound in another form.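 Kinases, fused to nanoluciferase, were expressed in K562 cells; luminescence was measured every 4 h from 2 to 18 h as percent of control (DMSO = 100%, positive control = 0%). A time point is decreased if signal falls significantly (2 sigma). Hits were called by the authors by a rule that is not shown; the count of time points alone does not decide it.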
# The chains behind the UniProt entries cited, without tags or fusion partners. Where a name states a change or a piece, a line headed by the entry shows the natural chain unless it says otherwise.
# UniProt P07947, whole entry, looked up: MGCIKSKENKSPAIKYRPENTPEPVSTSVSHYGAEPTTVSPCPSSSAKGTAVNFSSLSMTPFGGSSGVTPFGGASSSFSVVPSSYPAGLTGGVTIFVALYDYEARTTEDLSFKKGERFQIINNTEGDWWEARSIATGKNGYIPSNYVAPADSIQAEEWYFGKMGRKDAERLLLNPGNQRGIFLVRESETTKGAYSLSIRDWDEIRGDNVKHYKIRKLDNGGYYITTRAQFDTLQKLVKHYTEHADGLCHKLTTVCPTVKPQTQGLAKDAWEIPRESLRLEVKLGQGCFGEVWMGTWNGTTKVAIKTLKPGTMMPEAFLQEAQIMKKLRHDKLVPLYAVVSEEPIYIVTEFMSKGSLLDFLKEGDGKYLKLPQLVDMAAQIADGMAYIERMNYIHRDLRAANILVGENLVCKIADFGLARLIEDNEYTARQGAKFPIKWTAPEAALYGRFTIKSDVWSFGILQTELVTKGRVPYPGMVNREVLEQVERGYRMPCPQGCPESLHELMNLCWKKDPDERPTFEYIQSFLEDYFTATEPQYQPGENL
# UniProt P43403: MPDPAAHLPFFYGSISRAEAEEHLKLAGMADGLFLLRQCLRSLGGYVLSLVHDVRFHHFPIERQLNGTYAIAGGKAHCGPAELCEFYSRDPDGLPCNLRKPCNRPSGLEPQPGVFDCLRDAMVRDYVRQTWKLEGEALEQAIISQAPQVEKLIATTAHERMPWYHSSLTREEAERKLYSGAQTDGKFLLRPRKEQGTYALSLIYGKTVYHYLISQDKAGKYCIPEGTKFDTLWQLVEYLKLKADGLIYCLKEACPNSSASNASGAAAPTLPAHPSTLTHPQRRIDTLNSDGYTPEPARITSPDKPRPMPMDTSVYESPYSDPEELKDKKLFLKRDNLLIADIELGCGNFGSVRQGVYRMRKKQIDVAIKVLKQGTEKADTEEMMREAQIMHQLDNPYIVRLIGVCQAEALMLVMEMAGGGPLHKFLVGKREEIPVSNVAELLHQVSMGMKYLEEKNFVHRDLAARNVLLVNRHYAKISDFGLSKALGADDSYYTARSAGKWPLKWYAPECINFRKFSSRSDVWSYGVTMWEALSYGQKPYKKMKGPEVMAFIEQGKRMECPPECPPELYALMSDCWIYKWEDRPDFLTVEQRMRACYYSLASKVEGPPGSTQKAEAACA
# UniProt P11802: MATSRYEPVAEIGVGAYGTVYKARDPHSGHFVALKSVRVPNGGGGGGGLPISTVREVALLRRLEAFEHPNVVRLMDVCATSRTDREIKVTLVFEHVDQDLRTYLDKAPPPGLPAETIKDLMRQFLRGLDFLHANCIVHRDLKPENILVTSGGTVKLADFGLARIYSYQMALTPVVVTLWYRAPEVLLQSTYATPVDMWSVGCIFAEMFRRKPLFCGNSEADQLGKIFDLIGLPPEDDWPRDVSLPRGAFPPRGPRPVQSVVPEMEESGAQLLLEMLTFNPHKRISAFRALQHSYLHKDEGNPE
# UniProt P50613: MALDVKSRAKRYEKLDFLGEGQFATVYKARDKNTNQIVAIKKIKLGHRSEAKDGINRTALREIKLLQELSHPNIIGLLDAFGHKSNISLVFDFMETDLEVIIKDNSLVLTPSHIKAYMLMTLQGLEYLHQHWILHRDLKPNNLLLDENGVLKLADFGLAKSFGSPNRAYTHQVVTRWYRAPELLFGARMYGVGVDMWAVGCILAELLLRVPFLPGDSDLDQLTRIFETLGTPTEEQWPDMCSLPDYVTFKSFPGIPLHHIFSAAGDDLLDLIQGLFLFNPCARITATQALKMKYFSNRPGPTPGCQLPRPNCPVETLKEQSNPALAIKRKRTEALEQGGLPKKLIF
# UniProt P50750, whole entry: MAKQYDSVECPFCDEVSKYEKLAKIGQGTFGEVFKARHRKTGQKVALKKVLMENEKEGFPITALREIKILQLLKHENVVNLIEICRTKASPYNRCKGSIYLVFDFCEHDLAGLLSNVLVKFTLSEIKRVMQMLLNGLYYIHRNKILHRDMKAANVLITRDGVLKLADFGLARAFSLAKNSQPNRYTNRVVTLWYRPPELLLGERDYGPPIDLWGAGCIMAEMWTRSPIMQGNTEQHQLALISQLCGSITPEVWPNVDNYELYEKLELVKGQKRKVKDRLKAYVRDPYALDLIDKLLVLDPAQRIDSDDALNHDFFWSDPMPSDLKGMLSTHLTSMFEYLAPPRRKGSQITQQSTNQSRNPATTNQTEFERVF
# Experiments:
# Conditions in all cases: K562; 2-18 h
# [1] = molecular target: YES1 (UniProt P07947); experiment: number of time points (of 5) at which kinase-Nluc abundance scored as decreased, DMSO-normalised (count); higher = more persistent destabilization
# [2] = molecular target: ZAK (UniProt Q9NYL2); experiment: as above
# [3] = molecular target: ZAP70 (UniProt P43403); experiment: as above
# [4] = molecular target: CDK4 (UniProt P11802); experiment: number of time points (of 4; 2 h point missing) at which kinase-Nluc abundance scored as decreased, DMSO-normalised (count); higher = more persistent destabilization
# [5] = molecular target: CDK7 (UniProt P50613); experiment: as above
# [6] = molecular target: CDK9 (UniProt P50750); experiment: as above
smiles,measurement,setting,value
NC(=O)c1nc(-c2c(F)cccc2Cl)oc1Nc1ccc(C(=O)N2CCOCC2)cc1 (10 µM),number of time points,[1],0
same,number of time points,[2],0
same,number of time points,[3],0
same,number of time points,[4],0
same,number of time points,[5],0
same,number of time points,[6],0
O=C1c2c(O)cc(O)cc2O[C@H](c2cc(O)c(O)c(O)c2)[C@H]1O [Dihydromyricetin] (10 µM),number of time points,[1],0
same,number of time points,[2],0
same,number of time points,[3],0
same,number of time points,[4],0
same,number of time points,[5],0
same,number of time points,[6],0
O=C1c2cccc(O)c2C(=O)c2c(O)cccc21 [Danthron] (10 µM),number of time points,[1],0
same,number of time points,[2],0
same,number of time points,[3],0
same,number of time points,[4],0
same,number of time points,[5],0
same,number of time points,[6],0
N#Cc1c[nH]c2ccc(-c3ccc(-c4c(O)cccc4O)cc3)cc12 (10 µM),number of time points,[1],0
same,number of time points,[2],0
same,number of time points,[3],0
same,number of time points,[4],0
same,number of time points,[5],0
same,number of time points,[6],0
CCCC[C@H](CO)Nc1nc(NC)ncc1OC [Interferon receptor inducer-1] (10 µM),number of time points,[1],0
same,number of time points,[2],0
same,number of time points,[3],0
same,number of time points,[4],0
same,number of time points,[5],0
same,number of time points,[6],0
CN(C/C=C/C(=O)Nc1ccc(C(=O)Nc2cccc(Nc3ncc(Cl)c(-c4c[nH]c5ccccc45)n3)c2)cc1)CCCNC(=O)NCCOCCOCCOCCNC(=O)CCCC[C@@H]1SC[C@@H]2NC(=O)N[C@@H]21 (2.5 µM),number of time points,[1],0
same,number of time points,[2],0
same,number of time points,[3],0
same,number of time points,[4],2
same,number of time points,[5],0
same,number of time points,[6],0
Nc1n[nH]c(N)c1N=Nc1ccc(O)cc1 (10 µM),number of time points,[1],0
same,number of time points,[2],0
same,number of time points,[3],0
same,number of time points,[4],0
same,number of time points,[5],0
same,number of time points,[6],0
CNC[C@@H](NC(=O)c1ccc(-c2nc([C@H]3CC[C@H](O)[C@@H](F)C3)cnc2N)cc1F)c1cc(F)cc(Br)c1 [Rineterkib] (10 µM),number of time points,[1],0
same,number of time points,[2],0
same,number of time points,[3],0
same,number of time points,[4],0
same,number of time points,[5],0
same,number of time points,[6],0
Cc1c(C(=O)Nc2ccc(Oc3ccnc4cc(OCC(C)(C)O)ccc34)c(F)c2)c(=O)n(-c2ccccc2)n1C [Ningetinib Tosylate] (10 µM),number of time points,[1],0
same,number of time points,[2],0
same,number of time points,[3],0
same,number of time points,[4],1
same,number of time points,[5],3
same,number of time points,[6],2
C[C@]1(O)C[C@@](N)(c2ccc(-c3nc4n(c3-c3ccccc3)COc3ccncc3-4)cc2)C1 [TAS-117 (hydrochloride)] (10 µM),number of time points,[1],0
same,number of time points,[2],0
same,number of time points,[3],0
same,number of time points,[4],0
same,number of time points,[5],0
same,number of time points,[6],0
CC(C)(C)S(=O)(=O)c1cc2c(Nc3ccc4scnc4c3)ccnc2cc1OCCOCCOCCOCCOCC(=O)Nc1cccc2c1CN(C1CCC(=O)NC1=O)C2=O (configuration not stated) [PROTAC RIPK degrader-6] (10 µM),number of time points,[1],0
same,number of time points,[2],0
same,number of time points,[3],0
same,number of time points,[4],0
same,number of time points,[5],0
same,number of time points,[6],0
C[C@@H]1CN(Cc2cn[nH]c2-c2ccc(C#N)cc2)CCN1c1ccc(C(F)(F)F)cn1 (2.5 µM),number of time points,[1],0
same,number of time points,[2],0
same,number of time points,[3],0
same,number of time points,[4],0
same,number of time points,[5],0
same,number of time points,[6],0
COc1cc2nccc(Oc3ccc(NC(=O)Nc4ccc(F)cc4F)c(F)c3)c2cc1OC (10 µM),number of time points,[1],0
same,number of time points,[2],0
same,number of time points,[3],0
same,number of time points,[4],0
same,number of time points,[5],2
same,number of time points,[6],0
C[C@@H]1CN(CC(=O)Nc2ccc3c(c2)Cc2cccc(-c4cc(=O)cc(N5CCOCC5)o4)c2S3)C[C@H](C)O1 (2.5 µM),number of time points,[1],0
same,number of time points,[2],0
same,number of time points,[3],0
same,number of time points,[4],0
same,number of time points,[5],0
same,number of time points,[6],0
Cc1cccc(Cn2nc(C)c3c(NC(=O)c4csc5c(N)ncnc45)cccc32)n1 (10 µM),number of time points,[1],0
same,number of time points,[2],0
same,number of time points,[3],0
same,number of time points,[4],0
same,number of time points,[5],0
same,number of time points,[6],0
COc1cccc2cc(-c3nc([C@H]4CC[C@H](C(=O)O)CC4)n4ncnc(N)c34)[nH]c12 (2.5 µM),number of time points,[1],1
same,number of time points,[2],1
same,number of time points,[3],0
same,number of time points,[4],0
same,number of time points,[5],3
same,number of time points,[6],4
CC(C)n1cnnc1-c1cccc(NC(=O)c2cc3ccc(F)cc3[nH]2)n1 (2.5 µM),number of time points,[1],1
same,number of time points,[2],0
same,number of time points,[3],0
same,number of time points,[4],0
same,number of time points,[5],3
same,number of time points,[6],0
C[C@H](Nc1ccc2c(c1)OCCn1cc(N3C(=O)OC[C@H]3C(F)F)nc1-2)C(N)=O (10 µM),number of time points,[1],0
same,number of time points,[2],0
same,number of time points,[3],0
same,number of time points,[4],0
same,number of time points,[5],0
same,number of time points,[6],0
C=CC(=O)N1CCN(c2nc(OC[C@@H]3CCCN3C)nc3c2CCN(c2cccc4cccc(C)c24)C3)C[C@@H]1CC#N (2.5 µM),number of time points,[1],0
same,number of time points,[2],0
same,number of time points,[3],0
same,number of time points,[4],0
same,number of time points,[5],0
same,number of time points,[6],0
CCCCNc1ncc2c(-c3ccc(CN4CCN(C)CC4)cc3)cn([C@H]3CC[C@H](O)CC3)c2n1 [UNC2025 (hydrochloride)] (2.5 µM),number of time points,[1],1
same,number of time points,[2],0
same,number of time points,[3],0
same,number of time points,[4],0
same,number of time points,[5],0
same,number of time points,[6],0
CCOC(=O)C1=C[C@]2(CC)CCCN3CCc4c(n1c1ccccc41)[C@@H]32 [Vinpocetine] (10 µM),number of time points,[1],0
same,number of time points,[2],0
same,number of time points,[3],0
same,number of time points,[4],0
same,number of time points,[5],0
same,number of time points,[6],0
C[C@H](CC[C@@H](O)C(C)(C)O)[C@H]1CC[C@@]2(C)[C@@H]3CC=C4[C@@H](CC[C@H](O)C4(C)C)[C@]3(C)[C@H](O)C[C@]12C [Mogrol] (10 µM),number of time points,[1],0
same,number of time points,[2],0
same,number of time points,[3],0
same,number of time points,[4],0
same,number of time points,[5],0
same,number of time points,[6],0
CCCCCC1CC1CC1CC1CCCCCCCC(=O)O (configuration not stated) (10 µM),number of time points,[1],0
same,number of time points,[2],0
same,number of time points,[3],0
same,number of time points,[4],0
same,number of time points,[5],0
same,number of time points,[6],0
COc1ncc2cc(C(=O)Nc3cc(C(=O)NCc4cccc(Cl)c4)ccc3Cl)c(=O)[nH]c2n1 (2.5 µM),number of time points,[1],0
same,number of time points,[2],0
same,number of time points,[3],0
same,number of time points,[4],0
same,number of time points,[5],0
same,number of time points,[6],0
COc1cc(Nc2nc3ccccc3nc2NS(=O)(=O)c2ccc(NC(=O)c3ccc(C)c(OC)c3)cc2)cc(OC)c1 (10 µM),number of time points,[1],0
same,number of time points,[2],0
same,number of time points,[3],0
same,number of time points,[4],0
same,number of time points,[5],0
same,number of time points,[6],0
CC(=O)NCC(=O)N[C@@H](C)C(=O)N[C@@H](CCC(N)=O)C(=O)N[C@@H](Cc1ccccc1)C(=O)N[C@@H](CO)C(=O)N[C@@H](CCCCN)C(=O)N[C@H](C(=O)N[C@@H](C)C(=O)N[C@@H](C)C(=O)N[C@@H](CCCCN)C(=O)O)[C@@H](C)O (10 µM),number of time points,[1],0
same,number of time points,[2],0
same,number of time points,[3],0
same,number of time points,[4],0
same,number of time points,[5],0
same,number of time points,[6],0
COC(=O)c1cc2c(OC(C)C)cc(OC(C)C)cc2[nH]1 (2.5 µM),number of time points,[1],0
same,number of time points,[2],0
same,number of time points,[3],0
same,number of time points,[4],0
same,number of time points,[5],0
same,number of time points,[6],0
COC(=O)/C=C/c1ccc(O)c(OC)c1 [Ferulic acid methyl ester] (10 µM),number of time points,[1],0
same,number of time points,[2],0
same,number of time points,[3],0
same,number of time points,[4],0
same,number of time points,[5],0
same,number of time points,[6],0
O=C1NCCSc2c1sc1ccc(O)cc21 (2.5 µM),number of time points,[1],0
same,number of time points,[2],0
same,number of time points,[3],0
same,number of time points,[4],0
same,number of time points,[5],0
same,number of time points,[6],0
Cc1cc(=O)[nH]c(=S)[nH]1 [Methylthiouracil] (10 µM),number of time points,[1],0
same,number of time points,[2],0
same,number of time points,[3],0
same,number of time points,[4],0
same,number of time points,[5],0
same,number of time points,[6],0
O=c1ccc2cc(O)c(O)cc2o1 [Esculetin] (10 µM),number of time points,[1],0
same,number of time points,[2],0
same,number of time points,[3],0
same,number of time points,[4],0
same,number of time points,[5],0
same,number of time points,[6],0
COc1cc(-c2cnc(N)c(-c3ccc(NC(=O)c4cn(CC5CCOCC5)cc(-c5ccc(C)cn5)c4=O)cc3F)c2)ccc1OC[C@H]1COCCO1 [DS-1205b (free base)] (10 µM),number of time points,[1],0
same,number of time points,[2],0
same,number of time points,[3],0
same,number of time points,[4],0
same,number of time points,[5],0
same,number of time points,[6],0

# 3 entries from above in another layout:
smiles | measurement | setting | value
CCCCCC1CC1CC1CC1CCCCCCCC(=O)O (configuration not stated) (10 µM) | number of time points | [4] | 0
same | number of time points | [5] | 0
same | number of time points | [6] | 0

# A stretch from further up, as a working copy:
smiles,measurement,setting,value
CC(=O)NCC(=O)N[C@@H](C)C(=O)N[C@@H](CCC(N)=O)C(=O)N[C@@H](Cc1ccccc1)C(=O)N[C@@H](CO)C(=O)N[C@@H](CCCCN)C(=O)N[C@H](C(=O)N[C@@H](C)C(=O)N[C@@H](C)C(=O)N[C@@H](CCCCN)C(=O)O)[C@@H](C)O (10 µM),number of time points,[5],0
same,number of time points,[6],0
COC(=O)c1cc2c(OC(C)C)cc(OC(C)C)cc2[nH]1 (2.5 µM),number of time points,[1],0
same,number of time points,[2],0
